# Results are given in words; binding and its absence hold for the method and conditions named. Binding seen in cells or lysates may run through a third protein. Some entries that bind do so weakly or less than the wild type.
# Sequences of proteins named here, by UniProt entry; tags and fusion partners are left off.
# UniProt P15311: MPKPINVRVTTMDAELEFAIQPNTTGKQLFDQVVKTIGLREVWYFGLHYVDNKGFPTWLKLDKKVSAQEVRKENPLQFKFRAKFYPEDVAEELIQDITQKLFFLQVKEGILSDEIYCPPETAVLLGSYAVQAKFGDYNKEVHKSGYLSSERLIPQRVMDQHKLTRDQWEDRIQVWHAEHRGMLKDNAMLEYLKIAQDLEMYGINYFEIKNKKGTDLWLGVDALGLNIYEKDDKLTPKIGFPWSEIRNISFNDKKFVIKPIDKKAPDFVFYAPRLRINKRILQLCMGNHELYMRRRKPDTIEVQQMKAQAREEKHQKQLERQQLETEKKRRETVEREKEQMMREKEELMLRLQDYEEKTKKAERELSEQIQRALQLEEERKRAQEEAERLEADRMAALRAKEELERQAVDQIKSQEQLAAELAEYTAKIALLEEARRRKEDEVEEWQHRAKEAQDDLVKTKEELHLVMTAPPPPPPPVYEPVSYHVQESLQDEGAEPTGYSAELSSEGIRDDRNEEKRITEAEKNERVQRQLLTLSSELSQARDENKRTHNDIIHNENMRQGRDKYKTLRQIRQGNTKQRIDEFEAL
# UniProt Q99836: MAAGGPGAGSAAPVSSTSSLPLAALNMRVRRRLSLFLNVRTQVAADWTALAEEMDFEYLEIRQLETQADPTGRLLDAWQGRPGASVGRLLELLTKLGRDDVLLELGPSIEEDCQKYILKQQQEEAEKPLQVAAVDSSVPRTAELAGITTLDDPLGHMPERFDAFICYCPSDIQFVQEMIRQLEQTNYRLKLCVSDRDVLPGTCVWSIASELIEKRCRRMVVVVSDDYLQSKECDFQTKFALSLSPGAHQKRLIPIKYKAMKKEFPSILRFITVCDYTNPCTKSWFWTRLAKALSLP
# UniProt P51617: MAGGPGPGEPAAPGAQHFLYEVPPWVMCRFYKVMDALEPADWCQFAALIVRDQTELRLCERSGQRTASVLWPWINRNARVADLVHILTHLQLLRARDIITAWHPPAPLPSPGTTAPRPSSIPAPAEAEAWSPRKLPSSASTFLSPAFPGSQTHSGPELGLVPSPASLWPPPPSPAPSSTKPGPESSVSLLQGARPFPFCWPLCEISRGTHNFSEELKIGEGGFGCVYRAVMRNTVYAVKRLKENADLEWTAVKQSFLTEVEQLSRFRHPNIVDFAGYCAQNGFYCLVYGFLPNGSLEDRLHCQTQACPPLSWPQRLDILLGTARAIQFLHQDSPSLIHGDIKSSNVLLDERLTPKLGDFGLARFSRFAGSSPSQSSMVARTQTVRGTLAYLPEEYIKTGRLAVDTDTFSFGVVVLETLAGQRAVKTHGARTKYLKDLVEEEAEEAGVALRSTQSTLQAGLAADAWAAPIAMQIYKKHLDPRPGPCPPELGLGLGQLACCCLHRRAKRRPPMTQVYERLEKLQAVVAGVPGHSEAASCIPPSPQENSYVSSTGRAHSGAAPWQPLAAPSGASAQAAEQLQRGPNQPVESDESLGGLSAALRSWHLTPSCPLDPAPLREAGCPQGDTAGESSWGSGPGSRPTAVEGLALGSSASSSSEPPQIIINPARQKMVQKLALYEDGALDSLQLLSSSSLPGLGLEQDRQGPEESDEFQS
# Experiments:
# [1] = target: ezrin (human (endogenous in A549)) (UniProt P15311); test: co-IP; whole cell lysates of control A549 cells not exposed to LPS; anti-ezrin antibody overnight, protein A/G agarose beads 6 h, blots with anti-MyD88, anti-IRAK-1
# [2] = target: ezrin (human (endogenous in A549)) (UniProt P15311); test: co-IP; whole cell lysates of A549 cells challenged with LPS (1 µg/mL), for Syk also control cells without LPS; with or without ROCK1 siRNA or ezrin siRNA; anti-ezrin antibody overnight, protein A/G agarose beads 6 h, blots with anti-Syk, anti-MyD88, anti-IRAK-1
binding [2],Substance,binding [1]
binds,myeloid differentiation factor 88 (from UniProt Q99836 1-296),no binding (condition: cells without LPS stimulation)
binds,IL-1R-associated kinase 1 (from UniProt P51617 1-712),no binding (condition: cells without LPS stimulation)

# Source: paper PMC9097379
